The text below walks through data of patent publication US20190330628A1.

Chains of the proteins cited; added tags and fusions are not shown. Residues count along the entry.
UniProt Q9UKV8: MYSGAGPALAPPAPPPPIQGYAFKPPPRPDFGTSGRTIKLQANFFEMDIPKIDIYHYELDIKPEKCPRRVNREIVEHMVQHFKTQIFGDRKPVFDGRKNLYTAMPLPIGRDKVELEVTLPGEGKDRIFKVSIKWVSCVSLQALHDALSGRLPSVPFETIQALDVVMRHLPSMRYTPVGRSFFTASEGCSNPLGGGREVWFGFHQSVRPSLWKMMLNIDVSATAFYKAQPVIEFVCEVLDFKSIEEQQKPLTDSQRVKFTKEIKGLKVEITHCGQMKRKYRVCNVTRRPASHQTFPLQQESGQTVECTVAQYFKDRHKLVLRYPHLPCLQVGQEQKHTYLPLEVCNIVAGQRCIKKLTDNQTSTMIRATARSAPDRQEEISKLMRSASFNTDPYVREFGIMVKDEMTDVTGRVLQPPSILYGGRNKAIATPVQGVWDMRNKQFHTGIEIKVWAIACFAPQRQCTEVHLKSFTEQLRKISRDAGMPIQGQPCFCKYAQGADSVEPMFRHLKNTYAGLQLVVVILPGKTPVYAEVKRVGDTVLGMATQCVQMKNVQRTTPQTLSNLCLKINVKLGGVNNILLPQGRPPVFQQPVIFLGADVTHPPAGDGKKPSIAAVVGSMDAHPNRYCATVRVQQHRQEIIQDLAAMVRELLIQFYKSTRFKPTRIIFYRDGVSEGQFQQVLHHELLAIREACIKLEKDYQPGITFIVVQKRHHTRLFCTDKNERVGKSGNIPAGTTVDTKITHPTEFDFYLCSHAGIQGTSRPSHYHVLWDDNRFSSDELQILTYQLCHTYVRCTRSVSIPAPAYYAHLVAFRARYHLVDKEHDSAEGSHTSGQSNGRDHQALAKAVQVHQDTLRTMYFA
UniProt P67809, residues 2-324: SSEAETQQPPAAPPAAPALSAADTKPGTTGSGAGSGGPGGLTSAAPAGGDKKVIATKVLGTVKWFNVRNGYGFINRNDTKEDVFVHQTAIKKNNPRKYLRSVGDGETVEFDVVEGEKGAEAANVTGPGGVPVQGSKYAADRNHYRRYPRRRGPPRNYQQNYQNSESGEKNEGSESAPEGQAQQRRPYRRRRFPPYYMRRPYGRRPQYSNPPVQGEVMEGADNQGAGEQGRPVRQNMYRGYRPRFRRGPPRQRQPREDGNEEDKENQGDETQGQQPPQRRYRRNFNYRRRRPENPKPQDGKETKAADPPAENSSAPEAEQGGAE

No constants are given. Whether binding was seen depends on the method and setting. Binding seen in cells or lysates may run through a third protein. Some results given as binding are weak or reduced against the parent protein; the word gives no strength.

The target of assay [1] is Ago2-Flag (UniProt Q9UKV8). Briefly: co-immunoprecipitation of Ago, Western blot; HA as IP and loading control.
In assay [2] the target is Ago2-Flag (UniProt Q9UKV8). Briefly: co-immunoprecipitation of Ago, Western blot (FIG. 2d). Background: In western blotting, separated proteins are transferred to a membrane and probed.

With YB-1 (from UniProt P67809 2-324), the binding entry in the assay with Ago2-Flag [1] and with Ago2-Flag [2] was “binds” throughout.
